Experimental data: patent publication US20180214542A1
Numbering of substitutions follows the chain as printed. Names may count otherwise. No constants are given. Whether binding was seen depends on the method and setting. Some binding calls cover weakened binding; strength is not graded here.

Amino acid sequences for entries named in this document (tags omitted).
UniProt P49682: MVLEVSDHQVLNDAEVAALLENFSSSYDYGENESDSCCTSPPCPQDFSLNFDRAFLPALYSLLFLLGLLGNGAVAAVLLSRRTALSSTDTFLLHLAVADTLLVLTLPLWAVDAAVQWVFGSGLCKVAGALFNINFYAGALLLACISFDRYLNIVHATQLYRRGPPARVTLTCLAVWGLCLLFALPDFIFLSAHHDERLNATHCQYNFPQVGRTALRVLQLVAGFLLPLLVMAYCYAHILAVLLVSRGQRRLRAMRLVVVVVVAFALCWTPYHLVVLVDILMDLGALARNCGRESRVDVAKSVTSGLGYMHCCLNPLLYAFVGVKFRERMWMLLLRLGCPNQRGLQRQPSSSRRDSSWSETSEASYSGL

B1: 53Hu37 variant VH T56K/N105W / VL S92R (antibody, V domains shown)
VH: EVQLLESGGGLVQPGGSLRLSCAASGFTFTSYAMSWVRQAPGKGLEWVATISHGGKYTYYPDSVKGRFTISRDNAKNTLYLQMNSLRAEDTAVYYCARHPIYSGWYQGYFDYWGQGTLVTVSS
VL: DIQLTQSPSFLSASVGDRVTITCRASSGVNYLYWYQQKPGKAPKLWIYFTSTLASGVPSRFSGSGSGNEYTLTISSLQPEDFATYYCQQFTRSPYTFGQGTKLEIK
B2: 53Hu37 variant VH T56R/N105F / VL N30R/S92R (antibody, V domains shown)
VH: B1 VH with K56R, W105F
VL: B1 VL with N30R
B3: 53Hu37 variant VH T56R/N105F / VL S92R (antibody, V domains shown)
VH: B1 VH with K56R, W105F
VL: B1 VL
B4: 53Hu37 variant VH T56R/N105F / VL 53Hu37 (antibody, V domains shown)
VH: B1 VH with K56R, W105F
VL: B1 VL with R92S
B5: 53Hu37 variant VH Y102H / VL S92R (antibody, V domains shown)
VH: B1 VH with K56T, Y102H, W105N
VL: B1 VL
B6: 53Hu37 variant VH G54K/N105F / VL 53Hu37 (antibody, V domains shown)
VH: B1 VH with G54K, K56T, W105F
VL: B1 VL with R92S
B7: 53Hu37 variant VH G54K/T56K/N105F / VL S92R (antibody, V domains shown)
VH: B1 VH with G54K, W105F
VL: B1 VL
B8: 53Hu37 variant VH G54K/T56K/N105F / VL 53Hu37 (antibody, V domains shown)
VH: B1 VH with G54K, W105F
VL: B1 VL with R92S
B9: 53Hu37 variant VH G54R/N105F / VL N30R/S92R (antibody, V domains shown)
VH: B1 VH with G54R, K56T, W105F
VL: B1 VL with N30R
B10: 53Hu37 variant VH G54R/N105F / VL 53Hu37 (antibody, V domains shown)
VH: B1 VH with G54R, K56T, W105F
VL: B1 VL with R92S
B11: 53Hu37 variant VH G54R/N105W / VL 53Hu37 (antibody, V domains shown)
VH: B1 VH with G54R, K56T
VL: B1 VL with R92S
B12: 53Hu37 variant VH G54R/T56R/N105F / VL N30R/S92R (antibody, V domains shown)
VH: B1 VH with G54R, K56R, W105F
VL: B1 VL with N30R
B13: 53Hu37 variant VH G54R/T56R/N105F / VL T91R (antibody, V domains shown)
VH: B1 VH with G54R, K56R, W105F
VL: B1 VL with T91R, R92S
B14: 53Hu37 variant VH G54R/T56R/N105F / VL 53Hu37 (antibody, V domains shown)
VH: B1 VH with G54R, K56R, W105F
VL: B1 VL with R92S
B15: 53Hu37 variant VH H53R/N105Q / VL 53Hu37 (antibody, V domains shown)
VH: B1 VH with H53R, K56T, W105Q
VL: B1 VL with R92S
B16: 53Hu37 variant VH N105F / VL N30R/S92R (antibody, V domains shown)
VH: B1 VH with K56T, W105F
VL: B1 VL with N30R

Target: recombinant human CXCR3 (human) (UniProt P49682)
Experiment: Biacore, binding avidity to recombinant human CXCR3

**Q.** How did the binding turn out when B1 was run?
**A.** Its binding is “binds”.

**Q.** Which binding does the source give for B2 here?
**A.** Its binding is “binds”.

**Q.** For B3, which binding is on record?
**A.** The binding was “binds”.

**Q.** For B4, which binding is on record?
**A.** The binding was “binds”.

**Q.** How did the binding turn out when B5 was run?
**A.** Its binding is “binds”.

**Q.** How did the binding turn out when B6 was run?
**A.** The binding was “binds”.

**Q.** Which binding does the source give for B7 here?
**A.** The binding was “binds”.

**Q.** With B8 as the binder, how does the binding read?
**A.** The binding was “binds”.

**Q.** With B9 as the binder, how does the binding read?
**A.** Its binding is “binds”.

**Q.** How did the binding turn out when B10 was run?
**A.** Its binding is “binds”.

**Q.** Which binding does the source give for B11 here?
**A.** The binding was “binds”.

**Q.** For B12, which binding is on record?
**A.** The binding was “binds”.

**Q.** For B13, which binding is on record?
**A.** The binding was “binds”.

**Q.** B14 was tested. Which binding did it give?
**A.** Its binding is “binds”.

**Q.** Which binding does the source give for B15 here?
**A.** Its binding is “binds”.

**Q.** With B16 as the binder, how does the binding read?
**A.** Its binding is “binds”.
